Among the data in publication PMC8668938 are binding values, retold here.

Protein sequences, listed by entry. Tags and fused reporters are not part of them. Lines headed by an entry give the natural chain unless they say otherwise; changes in a name come on top. Chains listed by the source or under a name are the forms on record and can include a tag or linker. Residues count along the entry.
UniProt Q14416: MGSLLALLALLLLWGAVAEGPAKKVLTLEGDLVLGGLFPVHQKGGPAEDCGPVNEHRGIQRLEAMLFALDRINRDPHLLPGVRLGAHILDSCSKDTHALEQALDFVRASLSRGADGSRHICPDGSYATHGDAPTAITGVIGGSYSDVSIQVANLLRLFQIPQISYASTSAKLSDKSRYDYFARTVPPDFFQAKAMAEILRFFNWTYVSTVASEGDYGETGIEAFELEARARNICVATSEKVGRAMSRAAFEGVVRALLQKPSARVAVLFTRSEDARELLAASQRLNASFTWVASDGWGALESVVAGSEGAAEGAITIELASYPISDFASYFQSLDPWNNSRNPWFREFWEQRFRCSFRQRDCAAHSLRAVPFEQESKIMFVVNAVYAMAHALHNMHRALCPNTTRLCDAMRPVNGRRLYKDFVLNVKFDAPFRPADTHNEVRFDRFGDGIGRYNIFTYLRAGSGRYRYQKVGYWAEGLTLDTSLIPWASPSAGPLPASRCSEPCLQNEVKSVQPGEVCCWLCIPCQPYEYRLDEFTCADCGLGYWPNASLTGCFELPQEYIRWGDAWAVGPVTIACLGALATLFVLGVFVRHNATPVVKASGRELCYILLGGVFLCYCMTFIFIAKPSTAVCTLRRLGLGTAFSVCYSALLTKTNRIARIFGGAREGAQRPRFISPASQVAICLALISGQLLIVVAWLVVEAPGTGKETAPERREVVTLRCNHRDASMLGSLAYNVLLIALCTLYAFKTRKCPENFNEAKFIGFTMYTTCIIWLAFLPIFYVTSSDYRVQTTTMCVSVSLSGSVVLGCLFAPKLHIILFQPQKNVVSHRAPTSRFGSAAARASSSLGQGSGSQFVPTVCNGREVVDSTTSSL
Flag-tagged metabotropic glutamate receptor subtype 2 (mGluR2-Flag): residues 19-872 of Q14416
N-terminal GST-tagged soluble ectodomain of mGluR2 (mGluR2-GST, aa 19-567): residues 19-567 of Q14416
UniProt P27487: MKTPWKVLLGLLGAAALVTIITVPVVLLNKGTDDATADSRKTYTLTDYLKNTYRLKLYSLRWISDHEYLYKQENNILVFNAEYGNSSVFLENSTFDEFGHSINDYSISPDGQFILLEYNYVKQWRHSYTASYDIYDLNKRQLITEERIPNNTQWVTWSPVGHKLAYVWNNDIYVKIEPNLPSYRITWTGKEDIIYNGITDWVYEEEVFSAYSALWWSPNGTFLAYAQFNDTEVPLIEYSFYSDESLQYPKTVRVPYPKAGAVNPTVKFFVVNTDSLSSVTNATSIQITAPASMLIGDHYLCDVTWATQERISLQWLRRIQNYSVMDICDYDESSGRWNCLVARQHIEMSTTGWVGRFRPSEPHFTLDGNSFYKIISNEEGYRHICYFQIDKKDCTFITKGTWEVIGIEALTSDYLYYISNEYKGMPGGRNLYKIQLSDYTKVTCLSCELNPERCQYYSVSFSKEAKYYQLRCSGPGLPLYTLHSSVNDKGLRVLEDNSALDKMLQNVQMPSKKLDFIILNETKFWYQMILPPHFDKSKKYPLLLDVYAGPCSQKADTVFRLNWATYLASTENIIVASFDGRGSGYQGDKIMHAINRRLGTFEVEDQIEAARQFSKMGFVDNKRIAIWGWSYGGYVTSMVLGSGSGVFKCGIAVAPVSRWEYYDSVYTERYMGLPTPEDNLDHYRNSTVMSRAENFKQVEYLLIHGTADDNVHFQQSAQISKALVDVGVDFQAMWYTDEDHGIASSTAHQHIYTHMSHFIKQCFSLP

These are yes or no findings as the source states them, for the method shown. In cells and extracts the contact can be indirect. Some results given as binding are weak or reduced against the parent protein; the word gives no strength.

For assay [1], the target named is Flag-tagged metabotropic glutamate receptor subtype 2 (mGluR2-Flag) (UniProt Q14416). Nature of the assay: co-IP.
Assay [2] addresses N-terminal GST-tagged soluble ectodomain of mGluR2 (mGluR2-GST, aa 19-567) (UniProt Q14416). Nature of the assay: pull-down; only the target purified.

Consider “Myc-tagged SARS-CoV spike protein (SARS-CoV S-Myc) (from UniProt P59594)”, for which the binding entry in assay [1] is listed as “binds”.
“Myc-tagged human DPP4 (DPP4-Myc) (from UniProt P27487 1-766) (receptor)”: the binding entry in assay [1] and in assay [2] was “binds” throughout.
